Experimental data taken from publication PMC7414866, “The Rnf complex is a Na^+ coupled respiratory enzyme in a fermenting bacterium, Thermotoga maritima” (Communications Biology, 2020).
These are yes or no findings as the source states them, for the method shown. In cells and extracts the contact can be indirect. A result given as binding can be weak or reduced; the word gives no strength.

Protein sequences, listed by entry. Tags and fused reporters are not part of them. Lines headed by an entry give the natural chain unless they say otherwise; changes in a name come on top.
UniProt Q9WY89: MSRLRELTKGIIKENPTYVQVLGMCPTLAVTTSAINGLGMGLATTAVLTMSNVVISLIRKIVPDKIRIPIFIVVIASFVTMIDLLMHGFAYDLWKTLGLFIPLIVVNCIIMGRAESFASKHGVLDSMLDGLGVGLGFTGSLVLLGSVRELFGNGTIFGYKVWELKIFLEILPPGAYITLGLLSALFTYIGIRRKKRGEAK
UniProt Q9WY90: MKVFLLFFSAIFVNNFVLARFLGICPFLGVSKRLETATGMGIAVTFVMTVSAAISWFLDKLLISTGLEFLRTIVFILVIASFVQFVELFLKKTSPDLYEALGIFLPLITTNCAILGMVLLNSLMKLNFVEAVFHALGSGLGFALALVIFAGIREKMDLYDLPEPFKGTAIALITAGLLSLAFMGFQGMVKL

Molecular target: T1, RnfC of Thermotoga maritima (Thermotoga maritima (endogenous in T. maritima DSM3109)) (UniProt Q9WY86)
T1 sequence: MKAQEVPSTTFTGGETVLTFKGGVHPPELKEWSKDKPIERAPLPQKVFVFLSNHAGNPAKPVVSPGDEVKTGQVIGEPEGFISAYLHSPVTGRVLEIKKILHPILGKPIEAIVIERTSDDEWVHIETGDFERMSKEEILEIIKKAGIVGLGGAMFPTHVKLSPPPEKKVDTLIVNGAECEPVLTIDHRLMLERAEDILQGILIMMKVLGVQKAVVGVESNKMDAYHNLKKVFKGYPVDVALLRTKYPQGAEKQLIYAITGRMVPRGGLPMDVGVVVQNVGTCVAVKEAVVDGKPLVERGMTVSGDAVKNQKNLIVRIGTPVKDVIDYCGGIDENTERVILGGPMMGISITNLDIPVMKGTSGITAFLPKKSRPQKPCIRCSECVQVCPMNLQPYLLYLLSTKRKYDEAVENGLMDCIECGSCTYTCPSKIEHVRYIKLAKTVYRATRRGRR
Assay: co-purification (PEG precipitation, sucrose gradient, anion exchange, hydroxyapatite, gel filtration); DDM solubilisate, PEG6000 7% then 12%, sucrose gradient 20-50%, Q-sepharose, hydroxyapatite, Sephacryl S300; subunits confirmed by MALDI-TOF and SDS-PAGE; no ATPase activity in the preparation

| Substance | binding |
| --- | --- |
| RnfE of Thermotoga maritima (from UniProt Q9WY89) | binds |
| RnfB of Thermotoga maritima | binds |
| RnfA of Thermotoga maritima (from UniProt Q9WY90) | binds |
